Measurements reported in PubChem BioAssay AID1508587 (Peter MacCallum Cancer Centre, 2020)
Test: 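Knockdowns that add to vemurafenib's cut in melanoma glycolysis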 (follow-up of hits). Cell system: human WM266.4 melanoma cells with a BRAF V600 mutation. Reagents: single siRNA against human genes, 25 nM. Timing: 96 h. Treatment: vemurafenib 300 nM (about IC25), given 48 h after transfection for 48 h. Measured: 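Medium lactate read by absorbance over DAPI-counted nuclei; ratio with versus without vemurafenib, set against non-targeting siRNA, averaged over 2 replicates; cell number also recorded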. Reading the numbers: lactate per cell, drug vs no drug: higher = less drug-induced drop in lactate per cell; lactate per cell with vemurafenib: higher = more lactate per cell under drug; lactate per cell without drug: higher = more lactate per cell without drug; cell growth with vemurafenib and cell growth without drug: higher = more cell growth over 48 h. Call rule: 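a duplex is active when its lactate-per-cell ratio with versus without drug falls under 0.55, i.e. 2 SD below non-targeting; a gene is confirmed if 2 or more of 4 duplexes pass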.
The whole screen tested about 1,600 reagents; below is a part drawn at random. 623 of them (39%) count as active. 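Calls are for each duplex; lactate ratios contain extreme outliers.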 The numbers tell different reagents against one gene apart.

| target gene | siRNA no. | lactate per cell, drug vs no drug | lactate per cell with vemurafenib | lactate per cell without drug | cell growth with vemurafenib | cell growth without drug | Outcome |
| --- | --- | --- | --- | --- | --- | --- | --- |
| INPP5A (GeneID 3632) | 1 | 0.56 | 1.34 | 1.51 | 0.51 | 0.42 | inactive |
| INPP5A (GeneID 3632) | 2 | 0.58 | 1.76 | 1.9 | 0.22 | 0.09 | inactive |
| INPP5A (GeneID 3632) | 3 | 0.46 | 0.7 | 0.96 | 0.78 | 0.77 | active |
| INPP5A (GeneID 3632) | 4 | 0.4 | 1.25 | 1.98 | 0.09 | 0.17 | active |
| CCDC71L (GeneID 168455) | 1 | 0.8 | 1.27 | 1.17 | 0.04 | 0.3 | inactive |
| CCDC71L (GeneID 168455) | 2 | 0.73 | 3.09 | 3.04 | -0.01 | 0.04 | inactive |
| CCDC71L (GeneID 168455) | 3 | 0.26 | 0.32 | 0.88 | 0.31 | 0.4 | active |
| CCDC71L (GeneID 168455) | 4 | 0.72 | 1.83 | 1.82 | 0.44 | 0.26 | inactive |
| GLE1 (GeneID 2733) | 1 | 0.63 | 0.86 | 0.98 | 0.73 | 1.11 | inactive |
| GLE1 (GeneID 2733) | 2 | 0.73 | 1.74 | 1.71 | 0.31 | 0.44 | inactive |
| GLE1 (GeneID 2733) | 3 | 1.12 | 1.6 | 1.06 | 0.56 | 0.86 | inactive |
| GLE1 (GeneID 2733) | 4 | 0.76 | 1.12 | 1.06 | 1.64 | 1.22 | inactive |
| OR8U9 (GeneID 504190) | 1 | 0.6 | 0.91 | 1.04 | 0.6 | 0.88 | inactive |
| OR8U9 (GeneID 504190) | 2 | 0.65 | 1.62 | 1.68 | -0.04 | 0.06 | inactive |
| OR8U9 (GeneID 504190) | 3 | 0.53 | 0.46 | 0.58 | 0.95 | 1.11 | active |
| OR8U9 (GeneID 504190) | 4 | 1 | 1.24 | 0.98 | -0.09 | -0.07 | inactive |
| CLEC14A (GeneID 161198) | 1 | 0.61 | 1.02 | 1.12 | 0.67 | 0.62 | inactive |
| CLEC14A (GeneID 161198) | 2 | 0.76 | 1.5 | 1.34 | 0.35 | 0.39 | inactive |
| CLEC14A (GeneID 161198) | 3 | 0.8 | 1.64 | 1.38 | 0.37 | 0.26 | inactive |
| CLEC14A (GeneID 161198) | 4 | 0.7 | 1.82 | 1.72 | -0.04 | -0.06 | inactive |
| RRP8 (GeneID 23378) | 1 | 0.44 | 2.11 | 3.49 | 0 | -0.01 | active |
| RRP8 (GeneID 23378) | 2 | 0.48 | 0.57 | 0.89 | -0.11 | 0.1 | active |
| RRP8 (GeneID 23378) | 3 | 0.58 | 0.85 | 0.99 | 0.93 | 0.78 | inactive |
| RRP8 (GeneID 23378) | 4 | 0.45 | 0.79 | 1.18 | 0.18 | 0.09 | active |
| SGTA (GeneID 6449) | 1 | 0.12 | 0.32 | 1.69 | -0.22 | -0.19 | active |
| SGTA (GeneID 6449) | 2 | 0.92 | 4.42 | 3.23 | -0.18 | -0.06 | inactive |
| SGTA (GeneID 6449) | 3 | 0.65 | 1.28 | 1.34 | 0.55 | 0.44 | inactive |
| SGTA (GeneID 6449) | 4 | 1.01 | 1.39 | 0.94 | 0.26 | 0.28 | inactive |
| LRRN3 (GeneID 54674) | 1 | 0.61 | 1.04 | 1.22 | 0.67 | 0.72 | inactive |
| LRRN3 (GeneID 54674) | 2 | 0.77 | 1.23 | 1.16 | 0.6 | 0.61 | inactive |
| LRRN3 (GeneID 54674) | 3 | 0.48 | 0.79 | 1.22 | 0.16 | 0.17 | active |
| LRRN3 (GeneID 54674) | 4 | 0.55 | 1.38 | 1.79 | 0.62 | 0.32 | inactive |
| TM9SF2 (GeneID 9375) | 1 | 0.46 | 1.36 | 1.92 | 0.09 | 0.05 | active |
| TM9SF2 (GeneID 9375) | 2 | 0.74 | 1.13 | 1.01 | 0.68 | 0.84 | inactive |
| TM9SF2 (GeneID 9375) | 3 | 0.55 | 0.6 | 0.73 | 1.11 | 1.2 | inactive |
| TM9SF2 (GeneID 9375) | 4 | 0.58 | 0.73 | 0.82 | 0.81 | 1.17 | inactive |
| OR5C1 (GeneID 392391) | 1 | 0.52 | 1.15 | 1.46 | 0.04 | 0.27 | active |
| OR5C1 (GeneID 392391) | 2 | 0.71 | 2.65 | 2.48 | 0.07 | 0.1 | inactive |
| OR5C1 (GeneID 392391) | 3 | 0.58 | 0.67 | 0.75 | 0.44 | 0.86 | inactive |
| OR5C1 (GeneID 392391) | 4 | 0.54 | 1.65 | 2.04 | 0.06 | 0.02 | active |
| H4C3 (GeneID 8364) | 1 | 0.57 | 1.12 | 1.37 | 0.17 | 0.33 | inactive |
| H4C3 (GeneID 8364) | 2 | 0.8 | 1.18 | 1 | 0.94 | 0.9 | inactive |
| H4C3 (GeneID 8364) | 3 | 0.02 | 0.01 | 0.44 | 0.25 | 0.39 | active |
| H4C3 (GeneID 8364) | 4 | 0.44 | 1.02 | 1.56 | 0.34 | 0.18 | active |
| GLRA1 (GeneID 2741) | 1 | 0.68 | 2.29 | 2.02 | 0.09 | 0.16 | inactive |
| GLRA1 (GeneID 2741) | 2 | 0.48 | 1.73 | 2.1 | 0.44 | 0.33 | active |
| GLRA1 (GeneID 2741) | 3 | 0.51 | 1.27 | 1.49 | 0.55 | 0.5 | active |
| GLRA1 (GeneID 2741) | 4 | 0.57 | 1.24 | 1.27 | 0.22 | 0.2 | inactive |
| CELA2A (GeneID 63036) | 1 | 0.46 | 0.86 | 1.09 | 1.12 | 0.7 | active |
| CELA2A (GeneID 63036) | 2 | 0.38 | 1.15 | 1.76 | 0.24 | 0.11 | active |
| CELA2A (GeneID 63036) | 3 | 0.4 | 0.65 | 0.98 | 0.6 | 0.87 | active |
| CELA2A (GeneID 63036) | 4 | 0.45 | 1.17 | 1.62 | 0.51 | 0.3 | active |

3 entries already listed, sorted by “cell growth without drug”, high to low:
| target gene | siRNA no. | lactate per cell, drug vs no drug | lactate per cell with vemurafenib | lactate per cell without drug | cell growth with vemurafenib | cell growth without drug | Outcome |
| --- | --- | --- | --- | --- | --- | --- | --- |
| TM9SF2 (GeneID 9375) | 3 | 0.55 | 0.6 | 0.73 | 1.11 | 1.2 | inactive |
| TM9SF2 (GeneID 9375) | 4 | 0.58 | 0.73 | 0.82 | 0.81 | 1.17 | inactive |
| OR5C1 (GeneID 392391) | 1 | 0.52 | 1.15 | 1.46 | 0.04 | 0.27 | active |
